Reference: PubChem BioAssay AID322 (DTP/NCI, 2004)
The list is a part of this screen's results and no random one: it gathers tests that were run many times, whatever their T/C, doses with no T/C, and many T/C values between a quarter and a half above the control. Further doses and runs are listed elsewhere. T/C gives the treated animals as a percentage of the vehicle group. Some entries give survivors of the animals treated and no T/C: the source files T/C as zero there, which appears to mark a toxic dose or a test without result, not a measured value. Some doses without a T/C left all or most animals alive at the check, yet need not have been tolerated: survival well below the control is almost never listed, so the zero probably covers shortened survival too. Counts of survivors are from the toxicity check (mostly the fifth day) where no day follows; animals may have died later. Schedules are NCI's codes, read here as Q, the interval in days (D) or hours (H), X, the number of doses. Some entries hold several experiments; the values are given in rising order. Signs of the kind (2×) say how often a value occurs here. For survival time, the PubChem record calls one and a half times the control and up active, and a quarter to a half above the control has no call in these data; cut-offs in other NCI protocols can differ. Some T/C values are followed by the survivors on the day toxicity was checked, most often the fifth; without a count, all were alive then.

System: CD2F1 mice, P388/ADR leukemia ip, median survival T/C
Assay: NCI In Vivo Anticancer Drug Screen. Data for tumor model P388 Leukemia resistant to Adriamycin; NSC 123127, Developed at Scr 08 (intraperitoneal) in CD2F1 (CDF1) mice
Conditions: T/C endpoint: median survival time, higher T/C = longer survival
Protocol: The antitumor activity of compounds was measured in mice bearing transplantable tumors. Survival or tumor size were measured and the results are expressed as the measurement made in the treated group (T) divided by the measurement made in the vehicle treated control group (C). The tumor model used in this assay is P388 Leukemia resistant to Adriamycin; NSC 123127, Developed at Scr 08 (intraperitoneal) in CD2F1 (CDF1) mice

[1] = dose: 100.0 mg/kg/injection, schedule: Q01DX005 (ip), vehicle: Klucel (hydroxypropylcellulose) (HPC)
[2] = dose: 400.0 mg/kg/injection, schedule: Q01DX005 (ip), vehicle: Klucel (hydroxypropylcellulose) (HPC)

COc1cc(C)c(C2NC(=O)c3ccccc3N2)cc1C (stereo not drawn)
T/C (dose: 172.0 mg/kg/injection, schedule: Q01DX005 (ip), vehicle: Klucel (hydroxypropylcellulose) (HPC)): 134 % of control

CNC(=O)OCc1nc(SC)n(C)c1COC(=O)NC
T/C (dose: 34.0 mg/kg/injection, schedule: Q01DX005 (ip), vehicle: saline): 144 % of control
T/C (dose: 80.0 mg/kg/injection, schedule: Q01DX005 (ip), vehicle: saline): 131 % of control
survivor count (dose: 115.0 mg/kg/injection, schedule: Q01DX005 (ip), vehicle: saline): 9 of 10
survivor count (dose: 172.0 mg/kg/injection, schedule: Q01DX005 (ip), vehicle: saline): 10 of 10

CC1=C(C(N)=O)C(c2ccccc2)NC(=S)N1 (stereo not drawn)
survivor count (dose: 50.0 mg/kg/injection, schedule: Q01DX005 (ip), vehicle: Klucel (hydroxypropylcellulose) (HPC)): 10 of 10
survivor count [1]: 10 of 10
survivor count (dose: 200.0 mg/kg/injection, schedule: Q01DX005 (ip), vehicle: Klucel (hydroxypropylcellulose) (HPC)): 9 of 10
survivor count [2]: 8 of 10

O=C(Oc1ccccc1)c1cc(O)c(O)c(O)c1
survivor count (dose: 400.0 mg/kg/injection, schedule: Q01DX005 (ip), vehicle: saline with Tween-80): 3 of 6

O=C1C=C(N2CC2)C(=O)C(N2CC2)=C1N1CC1
T/C (dose: 0.02 mg/kg/injection, schedule: Q01DX005 (ip), vehicle: saline): 140 % of control

CC[C@]1(O)C[C@H]2CN(CCc3c([nH]c4ccccc34)[C@@](C(=O)OC)(c3cc4c(cc3OC)N(C=O)[C@H]3[C@@](O)(C(=O)OC)[C@H](OC(C)=O)[C@]5(CC)C=CCN6CC[C@]43[C@@H]65)C2)C1
T/C (dose: 1.0 mg/kg/injection, schedule: Q04DX003 (ip), vehicle: saline, evaluated on day 20): 100 % of control
T/C (dose: 1.0 mg/kg/injection, schedule: Q04DX003 (ip), vehicle: saline, evaluated on day 27): 102 % of control
T/C (dose: 1.0 mg/kg/injection, schedule: Q04DX003 (ip), vehicle: saline, evaluated on day 30): 86 (2×), 89 (2×), 90 (3×), 92 (2×), 93 (4×), 94 (2×), 95 (5×), 96, 97 (9×), 98 (6×), 98 [9 of 10 alive], 99 (2×), 100 (4×), 101 (2×), 102 (2×), 104, 105, 106 (2×), 111 % of control
T/C (dose: 1.0 mg/kg/injection, schedule: Q04DX003 (ip), vehicle: saline, evaluated on day 45): 95, 97 (2×), 99, 102, 103, 108 % of control
T/C (dose: 1.0 mg/kg/injection, schedule: Q04DX003 (ip), vehicle: saline, evaluated on day 56): 99 % of control
T/C (dose: 1.0 mg/kg/injection, schedule: Q04DX003 (ip), vehicle: saline, evaluated on day 60): 102 and 105 % of control
survivor count (dose: 1.0 mg/kg/injection, schedule: Q04DX003 (ip), vehicle: saline): 10 of 10 (3×) and 6 of 6
T/C (dose: 1.5 mg/kg/injection, schedule: Q04DX003 (ip), vehicle: saline, evaluated on day 20): 90 and 101 % of control
T/C (dose: 1.5 mg/kg/injection, schedule: Q04DX003 (ip), vehicle: saline, evaluated on day 23): 86 % of control
T/C (dose: 1.5 mg/kg/injection, schedule: Q04DX003 (ip), vehicle: saline, evaluated on day 27): 102 % of control
T/C (dose: 1.5 mg/kg/injection, schedule: Q04DX003 (ip), vehicle: saline, evaluated on day 30): 87 (2×), 88 (2×), 89 (2×), 90, 90 [9 of 10 alive] (2×), 91, 92, 93 (7×), 93 [9 of 10 alive], 94 (7×), 95, 96 (5×), 96 [9 of 10 alive], 97 (5×), 98 (4×), 99, 100 (3×), 101 (2×), 102 (3×), 103, 106 % of control
T/C (dose: 1.5 mg/kg/injection, schedule: Q04DX003 (ip), vehicle: saline, evaluated on day 45): 96, 97 (2×), 98 (2×), 99, 100, 102 % of control
T/C (dose: 1.5 mg/kg/injection, schedule: Q04DX003 (ip), vehicle: saline, evaluated on day 56): 98 % of control
T/C (dose: 1.5 mg/kg/injection, schedule: Q04DX003 (ip), vehicle: saline, evaluated on day 60): 101 and 104 % of control
survivor count (dose: 1.5 mg/kg/injection, schedule: Q04DX003 (ip), vehicle: saline): 10 of 10 and 6 of 6
T/C (dose: 2.0 mg/kg/injection, schedule: Q04DX003 (ip), vehicle: saline, evaluated on day 20): 100 % of control
T/C (dose: 2.0 mg/kg/injection, schedule: Q04DX003 (ip), vehicle: saline, evaluated on day 27): 102 % of control
T/C (dose: 2.0 mg/kg/injection, schedule: Q04DX003 (ip), vehicle: saline, evaluated on day 30): 86, 87 (2×), 88 (4×), 90 (3×), 91 (2×), 92, 92 [8 of 10 alive], 93 (2×), 93 [7 of 8 alive], 94 (4×), 95 (2×), 96 (4×), 96 [9 of 10 alive], 97 (5×), 98 (7×), 100 (3×), 101 (5×), 102 % of control [8 of 10 alive]
T/C (dose: 2.0 mg/kg/injection, schedule: Q04DX003 (ip), vehicle: saline, evaluated on day 45): 96 (2×), 97, 98 (2×), 102 (2×), 107 % of control [9 of 10 alive]
T/C (dose: 2.0 mg/kg/injection, schedule: Q04DX003 (ip), vehicle: saline, evaluated on day 56): 91 % of control
T/C (dose: 2.0 mg/kg/injection, schedule: Q04DX003 (ip), vehicle: saline, evaluated on day 60): 101 and 106 % of control
survivor count (dose: 2.0 mg/kg/injection, schedule: Q04DX003 (ip), vehicle: saline): 9 of 10, 10 of 10 (3×), 6 of 6
T/C (dose: 3.0 mg/kg/injection, schedule: Q04DX003 (ip), vehicle: saline, evaluated on day 27): 103 % of control
T/C (dose: 3.0 mg/kg/injection, schedule: Q04DX003 (ip), vehicle: saline, evaluated on day 30): 86, 87 (4×), 89, 89 [9 of 10 alive] (2×), 90, 90 [9 of 10 alive], 91, 91 [7 of 10 alive], 92 (5×), 92 [9 of 10 alive], 93 (2×), 94, 95, 96 (8×), 97, 98 (3×), 99 (2×), 100 (2×), 102, 106 % of control (2×)
T/C (dose: 3.0 mg/kg/injection, schedule: Q04DX003 (ip), vehicle: saline, evaluated on day 45): 92 [8 of 10 alive], 96 (2×), 98 (2×), 100, 101, 104 % of control
T/C (dose: 3.0 mg/kg/injection, schedule: Q04DX003 (ip), vehicle: saline, evaluated on day 56): 92 % of control
T/C (dose: 3.0 mg/kg/injection, schedule: Q04DX003 (ip), vehicle: saline, evaluated on day 60): 101 and 104 % of control
survivor count (dose: 3.0 mg/kg/injection, schedule: Q04DX003 (ip), vehicle: saline): 6 of 10, 8 of 10, 9 of 10 (2×), 10 of 10 (3×), 6 of 6

C=C1c2cccc(O)c2C(O)=C2C(=O)[C@]3(O)C(O)=C(C(N)=O)C(=O)[C@@H](N(C)C)[C@@H]3[C@@H](O)[C@H]12
T/C [1]: 133 % of control
T/C (dose: 166.67 mg/kg/injection, schedule: Q01DX005 (ip), vehicle: Klucel (hydroxypropylcellulose) (HPC)): 129 % of control [9 of 10 alive]
survivor count (dose: 277.77 mg/kg/injection, schedule: Q01DX005 (ip), vehicle: Klucel (hydroxypropylcellulose) (HPC)): 4 of 10
survivor count [2]: 0 of 10
